This is an account of results in PubChem BioAssay AID242 (DTP/NCI, 2004).

The experiment has as its system BDF1 mice, Lymphoma 8 ip, survival T/C. The experiment in a line: NCI In Vivo Anticancer Drug Screen. Data for tumor model Lymphoma 8 (intraperitoneal) in B6D2F1 (BDF1) mice. Conditions: T/C endpoint: survival time, mean or median, schedule: Q01DX010 (ip), vehicle: saline, higher T/C = longer survival. The procedure:
The antitumor activity of compounds was measured in mice bearing transplantable tumors. Survival or tumor size were measured and the results are expressed as the measurement made in the treated group (T) divided by the measurement made in the vehicle treated control group (C). The tumor model used in this assay is Lymphoma 8 (intraperitoneal) in B6D2F1 (BDF1) mice

The list is a part of this screen's results and no random one: it gathers some chemical classes. Other doses and runs of a compound may be missing. T/C: endpoint of the treated group in % of that of the vehicle group. Where survival is the endpoint, the PubChem record calls one and a half times the control and up active, and a quarter to a half above the control has no call in these data; cut-offs in other NCI protocols can differ. Some T/C values are marked as having no survivor count here; that says nothing about deaths at the dose. Schedule codes are those of the source, taken here to give the interval after Q, in days (D) or hours (H), and the number of doses after X. Some entries were tested several times; their values stand side by side, smallest first.

`O=C(O)CN(CCCl)CCCl`: the T/C by setting is: (dose: 0.63 mg/kg/injection) 104 [survivor count not shown] and 114 % of control [survivor count not shown]; (dose: 1.25 mg/kg/injection) 125 [survivor count not shown] and 146 % of control [survivor count not shown]; (dose: 2.5 mg/kg/injection) 142 [survivor count not shown] and 154 % of control [survivor count not shown]; (dose: 5.0 mg/kg/injection) 95 [survivor count not shown] and 114 % of control [survivor count not shown].
In the case of `ClCCN(CCCl)Cc1nc2ccccc2[nH]1`, the T/C was 96 % of control [survivor count not shown] (dose: 1.25 mg/kg/injection); 96 [survivor count not shown] and 108 % of control [survivor count not shown] (dose: 2.5 mg/kg/injection); 107 [survivor count not shown] and 133 % of control [survivor count not shown] (dose: 5.0 mg/kg/injection); 150 [survivor count not shown] and 157 % of control [survivor count not shown] (dose: 10.0 mg/kg/injection).
In the case of `NC1CCCCC1.NP(=O)(O)N(CCCl)CCCl`, the T/C is 103 % of control [survivor count not shown] (dose: 15.6 mg/kg/injection) and 185 % of control [survivor count not shown] (dose: 31.3 mg/kg/injection).
In the case of `ClCCNCCCl`, the T/C (dose: 18.8 mg/kg/injection) was 118 % of control [survivor count not shown]; the T/C (dose: 37.5 mg/kg/injection) was 136 [survivor count not shown] and 154 % of control [survivor count not shown].
Consider `CC(C(=O)O)N(CCCl)CCCl` (stereo not given), for which the T/C is, setting by setting: (dose: 0.5 mg/kg/injection) 133 [survivor count not shown] and 142 % of control [survivor count not shown]; (dose: 1.0 mg/kg/injection) 120 [survivor count not shown] and 132 % of control [survivor count not shown]; (dose: 2.0 mg/kg/injection) 153 [survivor count not shown] and 166 % of control [survivor count not shown]; (dose: 4.0 mg/kg/injection) 200 % of control [survivor count not shown].
For the compound `NC(Cc1cccc(N(CCCl)CCCl)c1)C(=O)O` (stereo not given), the T/C is, setting by setting: (dose: 0.63 mg/kg/injection) 108 % of control [survivor count not shown]; (dose: 1.25 mg/kg/injection) 125 % of control [survivor count not shown]; (dose: 2.5 mg/kg/injection) 145 % of control [survivor count not shown]; (dose: 5.0 mg/kg/injection) 91 % of control [survivor count not shown].
